In the supplement of paper PMC7661543:
The effect of the compound repeats well; differences between the knockouts mostly do not.

System: BT-20
Assay: relative cell number vs DMSO control (72 h) (% of DMSO); higher = less growth inhibition (more cells)
Experimental: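 QMAP-Seq: a pool of 5 breast cancer cell lines (ZR-75-1, SKBR3, HCC-38, MDA-MB-231, BT-20), each carrying 12 doxycycline-inducible Cas9 sgRNA perturbations (11 knockouts plus non-targeting sgNT), was treated with compounds for 72 h at four 10-fold doses (10 nM-10 uM or 1 nM-1 uM range). Barcodes were amplified and sequenced, and cell number was interpolated from 293T spike-in standard curves. The result is expressed as % of the median of DMSO wells. Two biological replicates.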

Cc1onc(-c2ccccc2)c1-c1ccc(S(N)(=O)=O)cc1 [Valdecoxib]
Conditions | relative cell number
sgRNA knockout: sgATF3, 10 nM | 108
sgRNA knockout: sgATF3, 100 nM | 96.5
sgRNA knockout: sgATF3, 1000 nM | 96.4
sgRNA knockout: sgATF3, 10000 nM | 98.3
sgRNA knockout: sgATF4, 10 nM | 99.8
sgRNA knockout: sgATF4, 100 nM | 112
sgRNA knockout: sgATF4, 1000 nM | 95.6
sgRNA knockout: sgATF4, 10000 nM | 120
sgRNA knockout: sgATF6, 10 nM | 105
sgRNA knockout: sgATF6, 100 nM | 97.5
sgRNA knockout: sgATF6, 1000 nM | 109
sgRNA knockout: sgATF6, 10000 nM | 112
sgRNA knockout: sgATG7, 10 nM | 95.3
sgRNA knockout: sgATG7, 100 nM | 102
sgRNA knockout: sgATG7, 1000 nM | 102
sgRNA knockout: sgATG7, 10000 nM | 96.5
sgRNA knockout: sgERN1, 10 nM | 92.7
sgRNA knockout: sgERN1, 100 nM | 104
sgRNA knockout: sgERN1, 1000 nM | 110
sgRNA knockout: sgERN1, 10000 nM | 122
sgRNA knockout: sgHSF1, 10 nM | 101
sgRNA knockout: sgHSF1, 100 nM | 118
sgRNA knockout: sgHSF1, 1000 nM | 118
sgRNA knockout: sgHSF1, 10000 nM | 105
sgRNA knockout: sgHSF2, 10 nM | 105
sgRNA knockout: sgHSF2, 100 nM | 91.3
sgRNA knockout: sgHSF2, 1000 nM | 97.5
sgRNA knockout: sgHSF2, 10000 nM | 117
sgRNA knockout: sgKEAP1, 10 nM | 97.9
sgRNA knockout: sgKEAP1, 100 nM | 108
sgRNA knockout: sgKEAP1, 1000 nM | 109
sgRNA knockout: sgKEAP1, 10000 nM | 111
sgRNA knockout: sgNFE2L2, 10 nM | 101
sgRNA knockout: sgNFE2L2, 100 nM | 103
sgRNA knockout: sgNFE2L2, 1000 nM | 98.8
sgRNA knockout: sgNFE2L2, 10000 nM | 114
sgRNA knockout: sgSLC35F2, 10 nM | 101
sgRNA knockout: sgSLC35F2, 100 nM | 112
sgRNA knockout: sgSLC35F2, 1000 nM | 113
sgRNA knockout: sgSLC35F2, 10000 nM | 116
sgRNA knockout: sgXBP1, 10 nM | 96.1
sgRNA knockout: sgXBP1, 100 nM | 100
sgRNA knockout: sgXBP1, 1000 nM | 101
sgRNA knockout: sgXBP1, 10000 nM | 103

C[C@]1(c2nc3c(C(N)=O)cccc3[nH]2)CCCN1 [Veliparib]
Conditions | relative cell number
sgRNA knockout: sgATF3, 10 nM | 108
sgRNA knockout: sgATF3, 100 nM | 119
sgRNA knockout: sgATF3, 1000 nM | 92.9
sgRNA knockout: sgATF3, 10000 nM | 82.7
sgRNA knockout: sgATF4, 10 nM | 110
sgRNA knockout: sgATF4, 100 nM | 129.1
sgRNA knockout: sgATF4, 1000 nM | 110
sgRNA knockout: sgATF4, 10000 nM | 83.2
sgRNA knockout: sgATF6, 10 nM | 99.8
sgRNA knockout: sgATF6, 100 nM | 112
sgRNA knockout: sgATF6, 1000 nM | 95.7
sgRNA knockout: sgATF6, 10000 nM | 78.4
sgRNA knockout: sgATG7, 10 nM | 107
sgRNA knockout: sgATG7, 100 nM | 102
sgRNA knockout: sgATG7, 1000 nM | 91.1
sgRNA knockout: sgATG7, 10000 nM | 76.4
sgRNA knockout: sgERN1, 10 nM | 109
sgRNA knockout: sgERN1, 100 nM | 103
sgRNA knockout: sgERN1, 1000 nM | 102
sgRNA knockout: sgERN1, 10000 nM | 88.7
sgRNA knockout: sgHSF1, 10 nM | 98.1
sgRNA knockout: sgHSF1, 100 nM | 106
sgRNA knockout: sgHSF1, 1000 nM | 90.1
sgRNA knockout: sgHSF1, 10000 nM | 80.7
sgRNA knockout: sgHSF2, 10 nM | 96.5
sgRNA knockout: sgHSF2, 100 nM | 117
sgRNA knockout: sgHSF2, 1000 nM | 84.5
sgRNA knockout: sgHSF2, 10000 nM | 80.8
sgRNA knockout: sgKEAP1, 10 nM | 94.9
sgRNA knockout: sgKEAP1, 100 nM | 101
sgRNA knockout: sgKEAP1, 1000 nM | 88.2
sgRNA knockout: sgKEAP1, 10000 nM | 81.2
sgRNA knockout: sgNFE2L2, 10 nM | 113
sgRNA knockout: sgNFE2L2, 100 nM | 128
sgRNA knockout: sgNFE2L2, 1000 nM | 94.7
sgRNA knockout: sgNFE2L2, 10000 nM | 86.9
sgRNA knockout: sgSLC35F2, 10 nM | 112
sgRNA knockout: sgSLC35F2, 100 nM | 116
sgRNA knockout: sgSLC35F2, 1000 nM | 97.8
sgRNA knockout: sgSLC35F2, 10000 nM | 87.8
sgRNA knockout: sgXBP1, 10 nM | 107
sgRNA knockout: sgXBP1, 100 nM | 118
sgRNA knockout: sgXBP1, 1000 nM | 99.3
sgRNA knockout: sgXBP1, 10000 nM | 82.1
